Source: PubChem BioAssay AID1347076 (National Center for Advancing Translational Sciences (NCATS), 2019)
Screen size: about 400,000 compounds; about 13,000 (3.2%) were called active. The shares of active, inactive and inconclusive entries below differ from those in the screen. Calls come from the whole dose curve; as a rule, active = well fitted cell-killing curve with a large enough effect; inconclusive = small, poorly fitted or top-dose-only effect, or effect the other way; inactive = flat fitted curve, though single readings scatter. Where the call is inconclusive, the potency comes from a doubtful curve fit.

Assay: qHTS assay for MDR1-selective chemotherapeutics: Primary screen using the drug-selected MDR subline cells KB-V1; note: nearly all actives have a fitted effect of over 60% in size
Conditions: KB-V1 MDR cells viability, CellTiter-Glo, 72 h; series mostly up to 46.1 µM
In short: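 Following 72 h at 37 degrees C with compound, KB-V1 cell viability was read by CellTiter-Glo luminescence, medium being phenol-red-free DMEM plus 10% FBS; concentration-response parameters came from normalized, curve-fitted qHTS data.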
Potency is the fitted concentration of half-maximal effect.

| SMILES | Potency |
| --- | --- |
| COc1ccc(NC(=O)CN2C(=O)COc3ccc(S(=O)(=O)Nc4ccccc4)cc32)cc1 | inactive |
| CCOc1cc2[nH]c(=S)n(CCCN3CCOCC3)c(=O)c2cc1OCC | inconclusive: 4.11 µM [cytotoxic, full curve] |
| O=C(C1CCN(Cc2ccc(F)cc2)CC1)N(CCc1ccccc1)Cc1ccccc1 | inactive |
| CCN(CC)c1ccc(CN(C(=O)Cc2coc3ccc(C)cc23)C2CCS(=O)(=O)C2)cc1 (stereo not drawn) | inconclusive: 29.1 µM [cytotoxic, single point] |
| CC(C)Sc1nc2c(c(=O)[nH]c(=O)n2C)n1Cc1ccccc1 | inconclusive: 9.2 µM [cytotoxic, partial curve] |
| CN(CC(=O)Nc1nc2ccccc2s1)S(=O)(=O)c1ccc(Br)cc1 | inconclusive: 14.6 µM [cytotoxic, partial curve, poor fit] |
| CCn1nc(C)c2c(-c3ccccc3)cc(=O)n(C(C)C(=O)NCc3cccc(OC)c3)c21 (stereo not drawn) | inactive |
| O=C(Nc1ccn(CCCN2CCC(N3CCOCC3)CC2)c(=O)n1)OCc1ccccc1 | inactive |
| CCOC(=O)N1CCN(CC(O)COc2c(C)cc(C)cc2C)CC1 (stereo not drawn) | inactive |
| O=C(CCc1nc(-c2ccccc2)no1)NCCc1ccccc1 | inconclusive: 29.1 µM [cytotoxic, single point] |
| O=C(CCN1CCOCC1)NNC(=S)NC(=O)c1ccc(Br)cc1 | inactive |
| CCc1cccc(NC(=O)CCCCCC2NC(=O)NC2C)c1 (stereo not drawn) | inactive |
| CCn1c(C)[n+](CCCS(=O)(=O)[O-])c2cc(Cl)c(Cl)cc21 | inactive |
| CSc1ncccc1C(=O)OCC(=O)N1CCN(S(=O)(=O)c2ccc(C)cc2C)CC1 | inconclusive: 20.6 µM [cytotoxic, single point] |
| CNCCCOc1ccc(Cl)cc1C(C)(C)C | inconclusive: 29.1 µM [cytotoxic, single point] |
| CNC(=O)c1ccsc1NC(=O)c1ccc2c(c1)CCCC2 | inconclusive: 9.2 µM [cytotoxic, partial curve] |
| O=C(CCNC(=O)c1ccc(Br)cc1)Nc1ncccc1O | inconclusive: 29.1 µM [rising, single point] |
| Cc1ccc(C(OCCN(C)C)c2cccc(C(F)(F)F)c2)cc1 (stereo not drawn) | inactive |
| N#CCCN(CCC#N)S(=O)(=O)c1ccc(C(=O)Nc2nnc(C3=COCCO3)o2)cc1 | inactive |
| c1ccc(-c2nnc(CN3CCN(c4ccccn4)CC3)o2)cc1 | inactive |
| O=C(NCCSCc1cccc(Cl)c1)C1CCN(S(=O)(=O)Cc2ccccc2)CC1 | inactive |
| NC1=NC(c2ccc([N+](=O)[O-])cc2)N(c2ccc(F)cc2)C(N)=N1 (stereo not drawn) | inconclusive: 18.4 µM [rising, partial curve] |
| Cc1ccc(Cl)cc1NC(=O)CSc1ccc(C(=O)O)cn1 | inconclusive: 29.1 µM [rising, single point] |
| CCN(CC)c1ccc(NC(=O)c2cc(C)nc3c2c(C)nn3-c2cccc(F)c2)c(C)c1 | inconclusive: 29.1 µM [rising, single point] |
| O=C(CN1C(=O)NC2(CCOc3ccccc32)C1=O)NCCc1ccccc1 (stereo not drawn) | inconclusive: 13 µM [cytotoxic, partial curve, poor fit] |

| SMILES | Potency |
| --- | --- |
| CCOc1ccc(CN2CCN(C/C=C/c3ccc(OC)cc3)CC2CCO)cc1 (stereo not drawn) | inconclusive: 29.1 µM [cytotoxic, single point] |
| Cc1cccc(-n2nnnc2SCC(=O)c2cc(C)n(Cc3ccco3)c2C)c1 | active: 18.4 µM |
| O=Nc1ccc(NO)c2ccccc12 | inconclusive: 29.1 µM [cytotoxic, single point] |
| O=C(OCC(=O)N1CCCCC1)c1c[nH]c2ccccc12 | active: 20.6 µM |
| COc1ccc(/C=C/C(=O)NC(=S)NNC(=O)c2cccnc2)cc1OC | inactive |
| Cc1ccc2c(c1)nnn2C1CCN(CC(=O)Nc2ccccc2N2CCOCC2)CC1 | inconclusive: 29.1 µM [cytotoxic, single point] |
| COc1ccc(C(=O)O/N=C(\N)Cc2ccc(Cl)cc2Cl)cc1OC | active: 23.1 µM |
| Cc1[nH][nH]c(=O)c1C(c1ccc(-c2ccc(Cl)c(Cl)c2)o1)c1c(C)[nH][nH]c1=O | inactive |
| O=C(CSCc1cccc(F)c1)N1CCN(c2ccccc2)CC1 | active: 20.6 µM |
| Nc1nnc(SCc2cn3cc(Cl)ccc3n2)s1 | inactive |
| Cc1cc(NC(=O)c2ccc(NC(=O)c3cccs3)cc2)no1 | active: 14.6 µM |
| O=C(CN1C(=O)NC2(CCCC2)C1=O)Nc1ccc(Cl)cc1F | inactive |
| COc1ccc(NC(=O)CSc2ncccc2C(=O)O)cc1OC | inconclusive: 16.4 µM [rising, partial curve] |
| COc1cc(C(=S)N2CCN(c3ccccc3Cl)CC2)cc(O)c1O | inactive |
| CC(=O)c1sc2c(c1OC(=O)c1ccccc1)c(=O)n(-c1ccccc1)c(=S)n2-c1ccccc1 | active: 9.2 µM |
| Nc1nonc1C(=O)N/N=C/c1cc(Br)ccc1O | inactive |
| C=CCC[C@@H](Cc1ccc(F)cc1)C(=O)OC[C@@H](NC(=O)[C@@H](CC=C)CC(=O)N[C@H](CO)Cc1ccccc1)C(C)(C)C | inconclusive: 5.8 µM [cytotoxic, full curve] |
| CCOCCc1nn2c(=O)cc(CSCC(=O)Nc3ccc(OC)cc3)nc2s1 | inactive |
| O=C(Nc1ccccc1CC[N+](=O)[O-])N1CCN(c2ccccc2)CC1 | inconclusive: 20.6 µM [cytotoxic, single point] |
| Cc1cc(Nc2ncc(Cl)cc2Cl)n(-c2ccccc2C)n1 | inactive |
| N/C(=N\OC(=O)COc1ccc(Cl)cc1Br)c1cccnc1 | inconclusive: 23.1 µM [cytotoxic, single point] |
| Clc1ccc(Sc2oc(/C=N/n3cnnc3)cc2Br)cc1 | inactive |
| C=CCNC(=S)N/N=C/c1ccc(C)cc1C | inconclusive: 18.4 µM [cytotoxic, single point] |
| N/C(=N\OC(=O)Cc1ccccc1)c1ccc([N+](=O)[O-])cc1 | inconclusive: 1.64 µM [rising, full curve] |
| O=C(CSc1nc2ccccc2c(=O)n1-c1cccc(C(F)(F)F)c1)NC1CC1 | inconclusive: 20.6 µM [cytotoxic, partial curve, poor fit] |

Ordered by length of the SMILES (high to low): part of the list above.

| SMILES | Potency |
| --- | --- |
| Cc1ccc2c(c1)nnn2C1CCN(CC(=O)Nc2ccccc2N2CCOCC2)CC1 | inconclusive: 29.1 µM [cytotoxic, single point] |
| Cc1cc(Nc2ncc(Cl)cc2Cl)n(-c2ccccc2C)n1 | inactive |
| Clc1ccc(Sc2oc(/C=N/n3cnnc3)cc2Br)cc1 | inactive |

Additional results follow.

| SMILES | Potency |
| --- | --- |
| Cc1ccc(-c2noc(CSc3nnc(-c4ccncc4)n3-c3ccc(F)cc3)n2)cc1 | active: 8.2 µM |
| CCN(c1ccccc1)c1cc2ccccc2c(=O)[nH]1 | inconclusive: 20.6 µM [cytotoxic, partial curve] |
| c1ccn2cc(-c3ccc4c(c3)OCCO4)nc2c1 | inconclusive: 18.4 µM [cytotoxic, single point] |
| O=C(NCc1cccnc1)c1cc(C2CCCCN2C(=O)c2cccs2)on1 (stereo not drawn) | inactive |
| Cc1ccc(NC(=O)COC(=O)c2ccccc2OCC(=O)Nc2ccc(Br)cc2)c(C)c1 | inactive |
| O=C(CC1SC(=Nc2ccccc2)N(CCc2c[nH]c3ccccc23)C1=O)Nc1ccccc1F (stereo not drawn) | inconclusive: 13 µM [cytotoxic, partial curve, poor fit] |
| CCN(C(=O)CN1C(=O)CN(C)C1=O)c1cccc2ccccc12 | inconclusive: 29.1 µM [rising, single point] |
| COc1cccc(N(C(=O)c2snc(C(N)=O)c2N)C(C(=O)NCC2CCCO2)c2ccc3ncccc3c2)c1 (stereo not drawn) | inconclusive: 20.6 µM [rising, partial curve, poor fit] |
| COCCCNc1nc2cc(OC)c(OC)cc2c2nc(-c3ccccc3)nn12 | inconclusive: 29.1 µM [cytotoxic, single point] |
| Cc1ccc(NC(=S)Nc2cccc3cnccc23)cc1C | inconclusive: 11.6 µM [cytotoxic, partial curve] |
| Fc1cccc(NC(=S)NCc2ccc(Cl)cc2)c1 | inconclusive: 20.6 µM [cytotoxic, single point] |
| CCN(CC)S(=O)(=O)c1ccc(N/N=C/c2cc(OC)ccc2O)nc1 | inconclusive: 2.06 µM [cytotoxic, partial curve, poor fit] |
| COCCCN1C(=O)C(CC(=O)NCCCCc2ccccc2)CC(C(=O)N(C(C)C)C(C)C)=C1C (stereo not drawn) | inactive |
| CN1CCc2nc(NC(=O)COc3ccc4ccccc4c3)sc2C1 | inconclusive: 29.1 µM [cytotoxic, single point] |
| O=C(NC1CCCC1)C(c1ccc(F)cc1)N(Cc1ccc(F)cc1)C(=O)CCl (stereo not drawn) | active: 18.4 µM |
| Cc1cc(C)cc(N2CC(C(=O)Nc3cc(C)on3)CC2=O)c1 (stereo not drawn) | inconclusive: 25.9 µM [cytotoxic, single point] |
| CCCCOC(=O)CNc1nnc(SCC(=O)OCC)[nH]c1=O | inconclusive: 25.9 µM [rising, partial curve, poor fit] |
| Nc1[nH]c(C(=O)c2ccccc2)c(-c2ccc(Br)cc2)c1C(=O)NCCc1c[nH]c2ccccc12 | inconclusive: 20.6 µM [cytotoxic, single point] |
| O=[N+]([O-])c1ccc(Oc2ccc(S(=O)(=O)N3CCOCC3)cn2)cc1 | inconclusive: 20.6 µM [cytotoxic, partial curve, poor fit] |
| O=C(CNC(=S)N(Cc1ccccc1)Cc1cccnc1)NCc1ccccc1 | inconclusive: 23.1 µM [cytotoxic, partial curve, poor fit] |
| O=C(Nc1cccnc1)c1ccc(Br)c(S(=O)(=O)N2CCCC2)c1 | inconclusive: 13 µM [cytotoxic, partial curve] |
| Cc1ccc(N(CC(=O)NCc2ccco2)C(=O)CCC(=O)Nc2nccs2)c(C)c1 | inactive |
| COc1ccc(NC(=O)CSc2nnc(CNc3ccc(C)cc3)n2C)cc1 | inconclusive: 29.1 µM [rising, single point] |
